Literature values in patent US5776744A, “Methods and compositions for effecting homologous recombination” (Yale University, priority 1995, dated 1998).
At least one read-out could not be matched to a standard name with certainty.

System: MDCK cells
Conditions: exposed three days, Zerial et al. 1987, 4320 min, read-out: concentration of free acridine orange that caused toxicity

CN(C)c1ccc2cc3ccc(N(C)C)cc3nc2c1 [acridine orange]
MCC: 2 mM
